Assay results from PubChem BioAssay AID248 (DTP/NCI, 2004).
The list shows only some results of the screen, not a fair sample: it is rich in T/C values a quarter to a half above the control, in often repeated tests (any T/C) and in doses without a T/C. Other doses and runs of a compound stand elsewhere. T/C is the treated group as % of the vehicle group. Some doses have a count of surviving animals in place of a T/C: the source holds a T/C of zero for them, seemingly a mark for toxic or unscored doses. Some survivor counts are full or nearly so, which does not show that the dose was tolerated: survival well below the control is almost never listed, so the zero probably covers shortened survival too. Survivors were counted at the toxicity check, usually on the fifth day, unless a day is given; later deaths do not show. Schedules are NCI's codes, read here as Q, the interval in days (D) or hours (H), X, the number of doses. Some schedules carry Z or #; the key to these is not given. Where survival is the endpoint, the PubChem record calls one and a half times the control and up active, and a quarter to a half above the control has no call in these data; cut-offs in other NCI protocols can differ. Some T/C values carry the count of animals alive at the toxicity check (mostly the fifth day); where none is given, no animal had died by that day. Some doses were run more than once; the values are given in rising order.

Tested on: L1210 leukemia ip in BDF1 mice, survival T/C
Assay: NCI In Vivo Anticancer Drug Screen. Data for tumor model L1210 Leukemia (intraperitoneal) in B6D2F1 (BDF1) mice
Conditions: T/C endpoint: mean survival time, higher T/C = longer survival
[1] = dose: 200.0 mg/kg/injection, schedule: Q04DX003 (ip), vehicle: Klucel (hydroxypropylcellulose) (HPC)
[2] = dose: 400.0 mg/kg/injection, schedule: Q04DX003 (ip), vehicle: Klucel (hydroxypropylcellulose) (HPC)
[3] = dose: 200.0 mg/kg/injection, schedule: Q01DX001 (ip), vehicle: saline
[4] = dose: 400.0 mg/kg/injection, schedule: Q01DX001 (ip), vehicle: saline
[5] = dose: 100.0 mg/kg/injection, schedule: Q04DX003 (ip), vehicle: saline with Tween-80
[6] = dose: 200.0 mg/kg/injection, schedule: Q04DX003 (ip), vehicle: saline with Tween-80
[7] = dose: 400.0 mg/kg/injection, schedule: Q01DX001 (ip), vehicle: Klucel (hydroxypropylcellulose) (HPC)
[8] = dose: 400.0 mg/kg/injection, schedule: Q01DX009 (ip), vehicle: saline with Tween-80
[9] = dose: 400.0 mg/kg/injection, schedule: Q01DX001 (ip), vehicle: saline with Tween-80
[10] = dose: 200.0 mg/kg/injection, schedule: Q01DX009 (ip), vehicle: saline with Tween-80
[11] = dose: 200.0 mg/kg/injection, schedule: Q01DX009 (ip), vehicle: saline
[12] = dose: 400.0 mg/kg/injection, schedule: Q01DX009 (ip), vehicle: saline
[13] = dose: 400.0 mg/kg/injection, schedule: Q01DX009 (ip), vehicle: Klucel (hydroxypropylcellulose) (HPC)
[14] = dose: 200.0 mg/kg/injection, schedule: Q01DX001 (ip), vehicle: Klucel (hydroxypropylcellulose) (HPC)
[15] = dose: 200.0 mg/kg/injection, schedule: Q01DX009 (ip), vehicle: Klucel (hydroxypropylcellulose) (HPC)
[16] = dose: 100.0 mg/kg/injection, schedule: Q01DX009 (ip), vehicle: Klucel (hydroxypropylcellulose) (HPC)
[17] = dose: 400.0 mg/kg/injection, schedule: Q04DX003 (ip), vehicle: saline

## CSc1ncc(C(N)=O)c(N=C(C)C)n1
[1]
  survivor count: 2 of 6
[2]
  survivor count: 0 of 6

## O=[As](O)(O[As](=O)(O)c1ccccc1)c1ccccc1
dose: 80.0 mg/kg/injection, schedule: Q01DX001 (ip), vehicle: saline
  survivor count: 2 of 4
dose: 100.0 mg/kg/injection, schedule: Q01DX001 (ip), vehicle: saline
  survivor count: 0 of 4
[3]
  survivor count: 0 of 4
[4]
  survivor count: 0 of 4

## Clc1nc(SC2=NCCN2)c2[nH]cnc2n1
dose: 80.0 mg/kg/injection, schedule: Q01DX009 (ip), vehicle: saline with Tween-80
  survivor count: 0 of 6
[5]
  survivor count: 0 of 6
[6]
  survivor count: 0 of 6
dose: 400.0 mg/kg/injection, schedule: Q04DX003 (ip), vehicle: saline with Tween-80
  survivor count: 0 of 6

## CC(=O)Nc1ccc(CCCCc2c(C)nc(NC(C)=O)[nH]c2=O)cc1
[7]
  survivor count: 6 of 6

## CCCSCC(C)C
[8]
  survivor count: 1 of 6

## O=[N+]([O-])c1ccc(N/N=C\c2ccc(OCCOCCCl)cc2)c([N+](=O)[O-])c1
dose: 200.0 mg/kg/injection, schedule: Q01DX001 (ip), vehicle: saline with Tween-80
  survivor count: 6 of 6
[9]
  survivor count: 6 of 6

## Clc1cc2nc3[nH]c4ccccc4c3nc2cc1Cl
[3]
  survivor count: 0 of 6
[4]
  survivor count: 0 of 6

## CC(C)c1ccc(/C(=N\NC(N)=S)C2CC2)cc1
dose: 15.0 mg/kg/injection, schedule: Q01DX Z (ip), vehicle: methylcellulose (MC)
  survivor count: 0 of 6
dose: 30.0 mg/kg/injection, schedule: Q01DX Z (ip), vehicle: methylcellulose (MC)
  survivor count: 0 of 6
dose: 60.0 mg/kg/injection, schedule: Q01DX Z (ip), vehicle: methylcellulose (MC)
  survivor count: 0 of 6
dose: 120.0 mg/kg/injection, schedule: Q01DX Z (ip), vehicle: methylcellulose (MC)
  survivor count: 0 of 6

## CC1C=NNC1=O (stereo unspecified)
dose: 150.0 mg/kg/injection, schedule: Q#B X027 (ip), vehicle: saline
  T/C: 135 % of control
[10]
  T/C: 136 % of control
[11]
  T/C: 147 % of control
[8]
  T/C: 131 % of control
[12]
  T/C: 140 % of control
dose: 600.0 mg/kg/injection, schedule: Q#B X027 (ip), vehicle: saline
  survivor count: 1 of 6

## Cc1ccc2cccc(CC(=O)NN)c2c1
[9]
  survivor count: 1 of 6
dose: 400.0 mg/kg/injection, schedule: Q04DX002 (ip), vehicle: saline with Tween-80
  survivor count: 0 of 6

## CC12CCC(O)CC1CCC1C2CCC2(C)C(C3=CC(=O)OC3)CCC12O (stereo unspecified)
dose: 100.0 mg/kg/injection, schedule: Q04DX003 (ip), vehicle: Klucel (hydroxypropylcellulose) (HPC)
  survivor count: 0 of 3
[1]
  survivor count: 0 of 3
[2]
  survivor count: 0 of 3

## O=Cc1cc(Cl)cc(Cl)c1OC(=O)c1ccccc1
[13]
  survivor count: 0 of 6

## Nc1cc2ccc3ccccc3c2c2ccccc12
[14]
  T/C: 125 % of control
  survivor count: 1 of 6
dose: 300.0 mg/kg/injection, schedule: Q01DX001 (ip), vehicle: Klucel (hydroxypropylcellulose) (HPC)
  survivor count: 1 of 6
[7]
  survivor count: 2 of 6

## CCCCCP(=O)(CCCC)CCCCC
[15]
  survivor count: 0 of 3

## COC1=C(OC)C(=O)c2ccccc2C1=O
[16]
  survivor count: 1 of 6
[15]
  survivor count: 0 of 6
[13]
  survivor count: 0 of 6

## COC1Nc2cc3ccccc3cc2-c2ccccc21 (stereo unspecified)
dose: 400.0 mg/kg/injection, schedule: Q01DX001 (ip), vehicle: carboxymethylcellulose (CMC)
  survivor count: 6 of 6

## Cc1nc(CON)cs1
dose: 100.0 mg/kg/injection, schedule: Q01DX009 (ip), vehicle: saline
  survivor count: 5 of 6
[17]
  survivor count: 6 of 6

## CC12CCC3C(CCC4C(C)(C(=O)O)CCCC34C)(CC1=O)C2 (stereo unspecified)
[9]
  survivor count: 3 of 3

## CCC(C)C(CCCN1CCOCC1)(CNC(=O)CN(CC)CC)c1cccc2ccccc12 (stereo unspecified)
dose: 200.0 mg/kg/injection, schedule: Q04DX003 (ip), vehicle: saline
  survivor count: 4 of 6
[17]
  survivor count: 1 of 6

## Cc1ccc2[nH]c(=O)oc(=O)c2c1
[8]
  survivor count: 6 of 6

## N=C(N)SCCCCSC(=N)N
[11]
  survivor count: 2 of 6
[12]
  survivor count: 0 of 6

## CCCCCCCCCCCCCC(=O)OC1C(CO)OC2C1Oc1nc(=N)ccn12 (stereo unspecified)
dose: 12.5 mg/kg/injection, schedule: Q01DX009 (ip), vehicle: other
  T/C: 130 % of control

## CCN(CC)CCNc1ccc(N=Nc2ccc(SC)cc2)c2ccccc12
[10]
  survivor count: 1 of 6

## CCN(CC)CCNc1cc(OC)cc2cccnc12
dose: 100.0 mg/kg/injection, schedule: Q04DX002 (ip), vehicle: saline
  survivor count: 0 of 3
dose: 200.0 mg/kg/injection, schedule: Q04DX002 (ip), vehicle: saline
  survivor count: 0 of 3
dose: 400.0 mg/kg/injection, schedule: Q04DX002 (ip), vehicle: saline
  survivor count: 0 of 3

## COC(=O)C(C)[P+](c1ccccc1)(c1ccccc1)c1ccccc1 (stereo unspecified)
dose: 2.5 mg/kg/injection, schedule: Q01DX009 (ip), vehicle: saline
  T/C: 126 % of control
dose: 10.0 mg/kg/injection, schedule: Q01DX001 (ip), vehicle: saline
  survivor count: 1 of 6
dose: 15.0 mg/kg/injection, schedule: Q01DX001 (ip), vehicle: saline
  survivor count: 1 of 6
dose: 30.0 mg/kg/injection, schedule: Q01DX001 (ip), vehicle: saline
  survivor count: 0 of 6
dose: 60.0 mg/kg/injection, schedule: Q01DX001 (ip), vehicle: saline
  survivor count: 0 of 6

## O=C1NC(c2cccc3ccccc23)Nc2ccc(Cl)cc21 (stereo unspecified)
[16]
  T/C: 125 [5 of 6 alive] and 131 % of control
dose: 150.0 mg/kg/injection, schedule: Q01DX009 (ip), vehicle: Klucel (hydroxypropylcellulose) (HPC)
  T/C: 125 % of control

## ClC1=NC(Cl)C(Cl)=N/C1=N\c1ncn[nH]1 (stereo unspecified)
dose: 62.5 mg/kg/injection, schedule: Q01DX009 (ip), vehicle: saline with Tween-80
  survivor count: 2 of 6
dose: 125.0 mg/kg/injection, schedule: Q01DX009 (ip), vehicle: saline with Tween-80
  survivor count: 0 of 6

## C=CCCN1CCCC1
dose: 6.0 mg/kg/injection, schedule: Q01DX009 (ip), vehicle: saline with Tween-80
  survivor count: 6 of 6
dose: 12.5 mg/kg/injection, schedule: Q04DX003 (ip), vehicle: saline with Tween-80
  T/C: 130 % of control
dose: 50.0 mg/kg/injection, schedule: Q04DX003 (ip), vehicle: saline with Tween-80
  survivor count: 3 of 6
[5]
  survivor count: 0 of 6
[6]
  survivor count: 0 of 6

## Cn1cnc([N+](=O)[O-])c1[Se]c1ncnc2nc[nH]c12
dose: 25.0 mg/kg/injection, schedule: Q01DX005 (ip), vehicle: other
  survivor count: 6 of 6
dose: 100.0 mg/kg/injection, schedule: Q01DX005 (ip), vehicle: other
  survivor count: 0 of 6
dose: 200.0 mg/kg/injection, schedule: Q01DX005 (ip), vehicle: other
  survivor count: 0 of 6
